Experimental data: US11535872B2, “Microbial strains and uses thereof” (priority 2017, dated 2022)
Some entries share one result that the patent states for a list of compounds.

Tested on: Y6604 (NCYC 4190)
Assay: Xylose utilisation of Y6604 in the presence of increased inhibitor concentrations
Assay type: cell-based, Candida tropicalis
Conditions: high inhibitor concentrations
Protocol: FIG. 4 show graphs illustrating xylose utilisation profiles of Y6604 (NCYC 4190) in the presence of increased inhibitor concentrations. Graphs A, B, C, D, E and F represent strain performance in the presence of increasing concentrations of vanillin (VAN), transcinnamic acid (TRANSC), hydroxyl-benzaldehyde (HBA), syringaldehyde (S), furfural (F) and hydroxyl-methyl furfural (HMF) respectively. Indicated values in the legend represent concentrations in mg/100 mL. Xylose values are the mean of two replicates in minimal media in shake flasks;
Strain Y6604 (NCYC 4190) was compared with other xylose-utilizing isolates from the gut of click beetle to assess its inhibitor tolerance and xylose to xylitol conversion. […] Despite slower Y6604 (NCYC 4190) growth in corn stover hydrolysate, xylose consumption and subsequent xylitol production was largely unaffected when compared to other isolates (FIG. 2 A, B) and increased amounts of the sugar alcohol at a comparatively higher rate of production were apparent in hydrolysates obtained from Miscanthus (FIG. 2 C, D) and wheat straw (FIG. 2 E, F). […] Having observed the enhanced efficacy of Y6604 (NCYC 4190) in hydrolysates with high inhibitor loadings, the isolate's tolerance threshold to common inhibitors by measuring xylose uptake rates (FIG. 4) was then assessed.

SMILES | time to complete attenuation of the pentose
COc1cc(C=O)ccc1O [vanillin] | ≤ 72 h
O=C(O)/C=C/c1ccccc1 [transcinnamic acid] | ≤ 72 h
